{
  "sequences": {"note": "The chains behind the UniProt entries cited, without tags or fusion partners. Where a name states a change or a piece, a line headed by the entry shows the natural chain unless it says otherwise. Residues count along the entry.", "UniProt Q99814, residues 1-360": "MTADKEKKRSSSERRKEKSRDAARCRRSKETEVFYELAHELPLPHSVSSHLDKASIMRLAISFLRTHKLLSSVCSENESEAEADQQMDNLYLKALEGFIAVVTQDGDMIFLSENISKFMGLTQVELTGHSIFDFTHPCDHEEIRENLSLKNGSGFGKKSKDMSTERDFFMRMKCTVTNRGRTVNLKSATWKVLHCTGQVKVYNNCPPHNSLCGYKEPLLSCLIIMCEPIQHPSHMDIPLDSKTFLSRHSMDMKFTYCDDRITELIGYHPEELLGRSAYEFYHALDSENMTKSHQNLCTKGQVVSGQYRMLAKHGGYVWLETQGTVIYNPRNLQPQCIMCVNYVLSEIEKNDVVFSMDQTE", "2α PASB (HIF-2α PASB domain, 240-350) (Q99814, residues 240-350)": "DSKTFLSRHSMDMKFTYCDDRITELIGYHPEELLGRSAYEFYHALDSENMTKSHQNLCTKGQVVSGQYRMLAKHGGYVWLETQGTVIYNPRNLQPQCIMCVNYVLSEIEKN", "UniProt Q16665": "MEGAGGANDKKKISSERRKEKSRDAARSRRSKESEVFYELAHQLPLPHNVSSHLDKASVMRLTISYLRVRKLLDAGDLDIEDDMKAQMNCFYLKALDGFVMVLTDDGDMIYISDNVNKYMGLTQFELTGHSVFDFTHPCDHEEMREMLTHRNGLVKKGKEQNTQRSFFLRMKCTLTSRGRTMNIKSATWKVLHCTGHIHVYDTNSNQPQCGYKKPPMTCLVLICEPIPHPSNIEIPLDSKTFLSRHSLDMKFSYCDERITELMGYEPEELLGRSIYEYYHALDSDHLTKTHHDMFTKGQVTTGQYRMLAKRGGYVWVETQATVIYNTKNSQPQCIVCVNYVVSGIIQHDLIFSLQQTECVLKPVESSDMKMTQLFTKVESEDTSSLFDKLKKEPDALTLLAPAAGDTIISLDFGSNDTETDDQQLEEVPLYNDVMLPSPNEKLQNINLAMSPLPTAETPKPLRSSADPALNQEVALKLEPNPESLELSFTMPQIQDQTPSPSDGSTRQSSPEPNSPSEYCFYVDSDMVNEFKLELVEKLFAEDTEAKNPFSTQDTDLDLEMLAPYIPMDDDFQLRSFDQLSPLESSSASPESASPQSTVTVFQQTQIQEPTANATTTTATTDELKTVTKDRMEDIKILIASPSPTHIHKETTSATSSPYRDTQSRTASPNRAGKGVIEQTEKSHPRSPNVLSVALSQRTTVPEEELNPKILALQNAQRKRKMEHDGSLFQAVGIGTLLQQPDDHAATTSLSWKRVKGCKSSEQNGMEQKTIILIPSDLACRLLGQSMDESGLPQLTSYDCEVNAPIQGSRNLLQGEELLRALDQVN", "1α PASB (HIF-1α PASB domain, 238-349)": "residues 238-349 of Q16665"},
  "source": "patent US20190033318A1",
  "key": {"[1]": {"target": "2α PASB (HIF-2α PASB domain, 240-350) (UniProt Q99814)", "assay": "MST, labelled HIF-2α PASB domain"}, "[2]": {"target": "2α PASB (HIF-2α PASB domain, 240-350) (UniProt Q99814)", "assay": "point competition ELISA with the PAS-B domain of HIF-2α; blocked partner GST-1β"}, "[3]": {"target": "HIF-2α (construct not given) (UniProt Q99814)", "assay": "thermal shift assay"}, "[4]": {"target": "HIF-1α (construct not given) (UniProt Q16665)", "assay": "thermal shift assay"}, "[5]": {"target": "1α PASB (HIF-1α PASB domain, 238-349) (UniProt Q16665)", "assay": "ELISA and MST"}, "[6]": {"target": "2α PASB (HIF-2α PASB domain, 240-350) (UniProt Q99814)", "assay": "ELISA and MST"}, "[7]": {"target": "1α PASB (HIF-1α PASB domain, 238-349) (UniProt Q16665)", "assay": "MST, labelled HIF-1α PASB domain"}, "[8]": {"target": "2α PASB (HIF-2α PASB domain, 240-350) (UniProt Q99814)", "assay": "competition ELISA: 2α PASB on Ni plate, peptide titrated, blocked partner GST-1β"}, "[9]": {"target": "1α PASB (HIF-1α PASB domain, 238-349) (UniProt Q16665)", "assay": "competition ELISA: 1α PASB on Ni plate, peptide titrated, blocked partner GST-1β"}, "[10]": {"target": "Trx-1α (thioredoxin-tagged HIF-1α 1-350, bHLH-PASA-PASB) (UniProt Q16665)", "assay": "competition ELISA: His-tagged Trx-1α on Ni plate, peptide titrated, binding of GST-1β (blocked partner) detected with anti-GST, A450"}},
  "note": "No constants are given. Whether binding was seen depends on the method and setting. Some binding calls cover weakened binding; strength is not graded here.",
  "data": [
    {"binder": "CRVIIF (cyclic peptide (cyclo-, first amino acid joined to the last))", "note": "[cyclo-CRVIIF (SEQ ID NO 4)]", "values": [
      {"measurement": "binding", "setting": "[1]", "result": "binds"},
      {"measurement": "binding", "setting": "[2]", "result": "binds"},
      {"measurement": "binding", "setting": "[3]", "result": "binds"},
      {"measurement": "binding", "setting": "[4]", "result": "binds"},
      {"measurement": "binding", "setting": "[5]", "result": "binds"},
      {"measurement": "binding", "setting": "[6]", "result": "binds"},
      {"measurement": "binding", "setting": "[7]", "result": "binds"}
    ]},
    {"binder": "ARVIIF", "values": [
      {"measurement": "binding", "setting": "[8]", "result": "binds"},
      {"measurement": "binding", "setting": "[9]", "result": "binds"}
    ]},
    {"binder": "CRAIIF", "values": [
      {"measurement": "binding", "setting": "[8]", "result": "binds"}
    ]},
    {"binder": "CRVAIF", "values": [
      {"measurement": "binding", "setting": "[8]", "result": "binds"}
    ]},
    {"binder": "CRVIAF", "values": [
      {"measurement": "binding", "setting": "[8]", "result": "binds"}
    ]},
    {"binder": "SGWEMIQRR (cyclic peptide (first amino acid joined to the last))", "note": "[cyclo-… (SEQ ID NO 5)]", "values": [
      {"measurement": "binding", "setting": "[10]", "result": "binds"},
      {"measurement": "binding", "setting": "[4]", "result": "binds"}
    ]},
    {"binder": "CKLIIF (cyclic peptide (first amino acid joined to the last))", "note": "[cyclo-CKLIIF (SEQ ID NO 2)]", "values": [
      {"measurement": "binding", "setting": "[1]", "result": "binds"},
      {"measurement": "binding", "setting": "[3]", "result": "binds"},
      {"measurement": "binding", "setting": "[4]", "result": "binds"},
      {"measurement": "binding", "setting": "[7]", "result": "binds"}
    ]},
    {"binder": "CRLLIF (cyclic peptide (cyclo-, first amino acid joined to the last))", "note": "[cyclo-CRLLIF (SEQ ID NO 3)]", "values": [
      {"measurement": "binding", "setting": "[1]", "result": "binds"},
      {"measurement": "binding", "setting": "[3]", "result": "binds"},
      {"measurement": "binding", "setting": "[4]", "result": "binds"},
      {"measurement": "binding", "setting": "[7]", "result": "binds"}
    ]}
  ]
}
